The campaign covered roughly 300,000 compounds. About 3,700 (1.2%) were called active. The inconclusive results got no clear call from the source; some entries with a clear call stand among them for comparison. Calls come from the whole dose curve; tested in HEK293 cells. Potencies of inconclusive entries are doubtful fits and often do not repeat.
Experiment: qHTS for Inhibitors of binding or entry into cells for Lassa Virus; note: nearly all actives have a fitted effect of over 50% in size
Conditions: Lassa virus pseudotype entry inhibition, cell reporter; activity change, negative = inhibition: at 37.9 µM (top of the series) unless noted
% is set by controls: 0 for no effect and ±100 for the full control effect; potency is the fitted concentration of half-maximal effect.

Row | Structure (SMILES) | activity change, negative = inhibition | Potency
1 | Cc1ccc(C)c(N2CCN(C(=O)CCS(=O)(=O)c3cccc4nonc34)CC2)c1 | inactive: 1.99% | 
2 | COc1ccc(C2Nc3ccccc3C(=O)N2NS(=O)(=O)c2ccc(C)cc2)cc1 (stereo unspecified) |  | inconclusive: 10 µM [inhibitor, partial curve, poor fit]
3 | Cc1ccc(NS(=O)(=O)c2cccc(C(=O)N3CCCC(C)C3)c2)cc1 (stereo unspecified) |  | inconclusive: 0.316 µM [inhibitor, full curve, poor fit]
4 | CCCS(=O)(=O)c1nc(S(=O)(=O)c2ccc(C)cc2)c(N2CCc3ccccc3C2)s1 |  | inconclusive: 35.5 µM [inhibitor, partial curve, poor fit]
5 | CCOC(=O)N1CCN(C(=O)C2CCN(S(=O)(=O)c3c(C)cc(C)cc3C)CC2)CC1 |  | inconclusive: 18.3 µM [inhibitor, single point]
6 | O=C(Nc1ccc2ccccc2c1)Nc1ccc2snnc2c1 |  | active: 12.6 µM
7 | COc1ccc(-n2ncc3c(=O)n(Cc4c(F)cccc4Cl)cnc32)cc1 |  | inconclusive: 1.58 µM [inhibitor, full curve]
8 | COCCCNC(=O)CC(c1cc(OC)c(OC)c(OC)c1)N1Cc2ccccc2C1=O (stereo unspecified) | inactive: 23.3% [at 46.1 µM] | 
9 | Cc1cc(C)c2nc(-c3ccco3)cc(C(=O)O)c2c1 | inactive: -3.99% [at 46.1 µM] | 
10 | Cc1ccc(-c2csc3ncnc(SCC(=O)O)c23)cc1 | inactive: -3.53% | 
11 | CN1CCCN(C(=O)/C=C/c2ccc(F)cc2)CC1 | inconclusive: 34.4% [activator] | 
12 | CCOc1cc(/C=N\NC(=O)Cc2ccccc2)ccc1OCC(=O)Nc1ccc(C)c(C)c1 |  | inconclusive: 17.8 µM [inhibitor, partial curve, poor fit]
13 | Cc1c(Cl)cccc1-c1ccc(C(=O)N2CCN(c3ccc([N+](=O)[O-])cc3)CC2)o1 |  | inconclusive: 35.5 µM [inhibitor, single point]
14 | Cc1nnc(NC(=O)c2ccccc2Br)s1 | inactive: 27.2% | 
15 | CC(=O)c1ccc(N=Nc2ccc(N(C)C)cc2)cc1 |  | inconclusive: 1 µM [inhibitor, partial curve, poor fit]
16 | Cc1ccc2c(CC(=O)N3CCN(S(=O)(=O)c4ccccc4)CC3)coc2c1 |  | inconclusive: 0.794 µM [inhibitor, partial curve, poor fit]
17 | Cc1c(C(=O)NCCc2ccc3c(c2)OCCO3)oc2ccccc12 | inactive: 18.7% | 
18 | CC(=O)Nc1cccc(NC(=O)c2ccc([N+](=O)[O-])cc2Cl)c1 | inactive: 7.96% | 
19 | Cc1ccc(C(=O)NC2CCC(C)CC2)s1 (stereo unspecified) |  | inconclusive: 11.2 µM [inhibitor, single point]
20 | CN1CCN(/N=C/c2ccc(Cl)c(Cl)c2)CC1 |  | inconclusive: 0.794 µM [activator, full curve]
21 | Fc1ccc(NCc2cn3ccccc3n2)cc1 |  | inconclusive: 6.31 µM [activator, partial curve]
22 | COc1nc(N)nc(N2CCOCC2)n1 | inactive: 7.44% | 
23 | O=C(O)c1cc2cccc(S(=O)(=O)N3CCCCC3)c2cc1O |  | inconclusive: 0.1 µM [activator, full curve, poor fit]

Row | Structure (SMILES) | activity change, negative = inhibition | Potency
24 | CCOC(=O)CC(c1ccc(N)cc1)n1c(C)ccc1C (stereo unspecified) | inactive: 11.7% [at 46.1 µM] | 
25 | CCCCN(Cc1ccccc1)C(=O)CN(C)S(=O)(=O)c1ccc2c(c1)c(=O)n(C)c(=O)n2C |  | inconclusive: 5.62 µM [inhibitor, single point]
26 | Cc1cccc(N2C(=O)CC(=O)NC2=O)c1 |  | inconclusive: 17.8 µM [activator, partial curve, poor fit]
27 | Cc1noc(/C=C/c2ccco2)c1S(=O)(=O)N1CCC(C(=O)Nc2ccc(F)cc2F)CC1 | inactive: -3.23% [at 46.1 µM] | 
28 | NC(=O)CSc1nc2cc(S(=O)(=O)N3CCOCC3)ccc2o1 |  | inconclusive: 6.31 µM [activator, single point]
29 | Brc1c(-c2ccccc2)nc2n1Cc1ccccc1-2 |  | inconclusive: 1.26 µM [activator, full curve, poor fit]
30 | COc1cccc(-n2c(C)nc3ccccc3c2=O)c1 |  | inconclusive: 35.5 µM [inhibitor, single point]
31 | Cc1ccc(C(=O)N2CCN(c3ccccn3)CC2)cc1Cl | inactive: -17.9% [at 46.1 µM] | 
32 | NCCc1nnc(SCc2ccccc2)o1 |  | inconclusive: 11.6 µM [inhibitor, partial curve, poor fit]
33 | O=[N+]([O-])c1ccccc1S(=O)(=O)N1CCCC(C(F)(F)F)C1 (stereo unspecified) |  | inconclusive: 6.31 µM [inhibitor, single point]
34 | CNP(=O)(Oc1ccccc1)OC12CC3CC(CC(C3)C1)C2 (stereo unspecified) |  | inconclusive: 35.5 µM [activator, partial curve, poor fit]
35 | COc1ccc(C(=O)Nc2ccc(OCC(=O)N3CCOCC3)cc2)c(OC)c1OC |  | inconclusive: 35.5 µM [inhibitor, single point]
36 | COc1ccc([C@H]2C[C@H](n3cc(-c4ccc(F)cc4)nn3)[C@@H](O)CN2C(=O)c2cccs2)cc1 |  | inconclusive: 35.3 µM [inhibitor, single point]
37 | O=C(COc1ccccc1[N+](=O)[O-])NCc1cccnc1 | inactive: 6.74% | 
38 | CCCCn1nnnc1SCC(=O)NCc1ccccc1 |  | inconclusive: 1.16 µM [activator, single point]
39 | CCCCCC(=O)N1C[C@H](O)[C@@H](n2cc(C3CC3)nn2)C[C@H]1c1ccc(Cl)cc1 |  | inconclusive: 0.995 µM [activator, full curve, poor fit]
40 | CCCCCn1c(SCCC(C)C)nc2c1c(=O)[nH]c(=O)n2C |  | inconclusive: 10 µM [inhibitor, partial curve, poor fit]
41 | O=c1[nH]c2ccc(N=Cc3c(O)ccc4cc(Br)ccc34)cc2[nH]1 | inactive: -7.67% | 
42 | CCc1ccccc1NC(=O)CSc1nnc(-c2cc(OC)c(OC)c(OC)c2)o1 | inactive: 5.59% [at 46.1 µM] | 
43 | CCn1c(-c2cc(-c3ccc(OC(C)C)cc3)nc3ccccc23)n[nH]c1=S | inactive: 0.42% | 
44 | COc1cc(OC)c2c(c1)C(=O)OC2 |  | inconclusive: 5.8 µM [inhibitor, partial curve, poor fit]
45 | O=c1oc(=O)c2ccccc2c2ccccc12 | inactive: 8.57% [at 46.1 µM] | 
46 | Cc1ccc(NC(=O)CCC(=O)N/N=C/c2ccc(O)cc2O)cc1 |  | inconclusive: 7.94 µM [inhibitor, partial curve, poor fit]

Ordered by count of non-hydrogen atoms (smallest number first): some entries from above
Row | Structure (SMILES) | activity change, negative = inhibition | Potency
42 | CCc1ccccc1NC(=O)CSc1nnc(-c2cc(OC)c(OC)c(OC)c2)o1 | inactive: 5.59% [at 46.1 µM] | 
5 | CCOC(=O)N1CCN(C(=O)C2CCN(S(=O)(=O)c3c(C)cc(C)cc3C)CC2)CC1 |  | inconclusive: 18.3 µM [inhibitor, single point]
36 | COc1ccc([C@H]2C[C@H](n3cc(-c4ccc(F)cc4)nn3)[C@@H](O)CN2C(=O)c2cccs2)cc1 |  | inconclusive: 35.3 µM [inhibitor, single point]
